39 compounds from PubChem BioAssay can be followed below.

The structures appear in SMILES notation. This is one part of the list. Measured potencies and affinities stand elsewhere. The source made no clear call on entries shown without one.

One assay in a line: Drosophila SCA1 whole organism dose response for polyglutamine toxicity reduction (AID 1595). The settings on record: Drosophila SCA1 polyglutamine model, at 1 µM, stronger effect = higher value.
`OC(c1cc(C(F)(F)F)nc2c(C(F)(F)F)cccc12)C1CCCCN1` (stereo not drawn): the suppression of toxicity came out at 0.

In the case of `C#C[C@]1(OC(C)=O)CCC2C3CCC4=CC(=O)CC[C@@H]4C3CC[C@@]21C` (stereo partly drawn), the suppression of toxicity was 5.71.

`NC(=O)c1ccc[n+]([C@@H]2O[C@H](COP(=O)([O-])OP(=O)(O)OC[C@H]3O[C@@H](n4cnc5c(N)ncnc54)[C@H](O)[C@@H]3O)[C@@H](O)[C@H]2O)c1` yielded a suppression of toxicity of 2.85.

`CC(C(=O)O)c1cccc(Oc2ccccc2)c1` (stereo not drawn) yielded a suppression of toxicity of 1.43.

Regarding `O=c1n(CCCN2CCN(c3cccc(Cl)c3)CC2)nc2ccccn12`, the suppression of toxicity was 1.43.

`Cc1nc2sccn2c(=O)c1CCN1CCC(=C(c2ccc(F)cc2)c2ccc(F)cc2)CC1`: the suppression of toxicity stood at 2.86.

Compound `O=NN(CCCl)C(=O)NCCCl` displayed a suppression of toxicity of 4.29.

On to `CC(C)CC1C(=O)N2CCC[C@H]2C2(O)O[C@](NC(=O)C3C=C4c5cccc6[nH]c(Br)c(c56)C[C@H]4N(C)C3)(C(C)C)C(=O)N12` (stereo partly drawn), for which the suppression of toxicity turned out to be 1.43.

Compound `CC(C)(Sc1cc(C(C)(C)C)c(O)c(C(C)(C)C)c1)Sc1cc(C(C)(C)C)c(O)c(C(C)(C)C)c1` came in with a suppression of toxicity of 0.

Take `C[N+](C)(C)CCO`: the suppression of toxicity is 7.14.

With `NC[C@H]1O[C@H](O[C@H]2C(O[C@@H]3O[C@H](CO)[C@@H](O)[C@H]3O)[C@@H](O)[C@H](N)C[C@@H]2N)[C@H](N)[C@@H](O)[C@@H]1O` (stereo partly drawn), the suppression of toxicity is 1.43.

With `NS(=O)(=O)c1cc2c(cc1Cl)NC=NS2(=O)=O`, the suppression of toxicity came out at 1.43.

Turning to `NCCCCN`, the suppression of toxicity is 0.

`Cc1cc(NC(=O)C2=C(O)c3ccccc3S(=O)(=O)N2C)no1`: the suppression of toxicity was found to be 0.

The compound `CCCOc1ccccc1-c1nc2n[nH]nc2c(=O)[nH]1` displayed a suppression of toxicity of 0.

With `CCCSc1ccc2nc(NC(=O)OC)[nH]c2c1`, the suppression of toxicity is 4.29.

With `CC(=O)OCC1=C(C(=O)O)N2C(=O)[C@@H](NC(=O)CSc3ccncc3)[C@H]2SC1`, the suppression of toxicity was determined as 0.

In turn, `Oc1ccc(Cl)cc1Cc1cc(Cl)ccc1O` yielded a suppression of toxicity of 1.43.

`CCN(CCCc1ccccc1)CCCc1ccccc1` (tested in a mixture with another compound) returned a suppression of toxicity of 1.43.

For the compound `CC(=O)N[C@@H]1[C@@H](O)[C@H](O)[C@@H](CO)O[C@H]1O`, the suppression of toxicity came out at 5.71.

Take `CC(=O)OC/C=C(C)/C=C/C=C(C)/C=C/C1=C(C)CCCC1(C)C`: the suppression of toxicity turned out to be 1.43.

`CCCc1cc(=O)[nH]c(=S)[nH]1` displayed a suppression of toxicity of 0.

For the compound `NCCSSCCN`, the suppression of toxicity came out at 1.43.

Compound `CN[C@@H]1[C@H](O)[C@H](NC)[C@H]2O[C@@]3(O)C(=O)C[C@@H](C)O[C@H]3OC2[C@H]1O` (stereo partly drawn) displayed a suppression of toxicity of 0.

Take `CC(C)[N+]1(C)C2CC[C@@H]1CC(OC(=O)C(CO)c1ccccc1)C2` (stereo partly drawn): the suppression of toxicity came to 5.71.

In turn, `NCCNC(=O)c1ccc(Cl)cc1` came in with a suppression of toxicity of 0.

In turn, `NCC1CCC(N)C(OC2C(N)CC(N)C(OC3OC(CO)C(O)C(N)C3O)C2O)O1` (stereo not drawn) had a suppression of toxicity of 0.

On to `Oc1c(Cl)cc(Cl)cc1Sc1cc(Cl)cc(Cl)c1O`, for which the suppression of toxicity was determined as 2.86.

`c1ccc(CN(CC2=NCCN2)c2ccccc2)cc1` returned a suppression of toxicity of 1.43.

The compound `NC(=NCc1ccccc1)NC(=O)c1nc(Cl)c(N)nc1N` displayed a suppression of toxicity of 0.

In turn, `Nc1nc(N)c2nc(-c3ccccc3)c(N)nc2n1` had a suppression of toxicity of 2.86.

Regarding `CC(C)[N+](C)(CCOC(=O)C1c2ccccc2Oc2ccccc21)C(C)C`, the suppression of toxicity was 4.29.

For `Nc1ccc(S(=O)(=O)Nc2ncccn2)cc1`, the suppression of toxicity is 4.29.

Consider `NC(Cc1ccc(F)cc1)C(=O)O` (stereo not drawn), for which the suppression of toxicity came out at 1.43.

Compound `Cc1ccccc1OCC(O)CO` (stereo not drawn) came in with a suppression of toxicity of 0.

Consider `C[C@H](CCC(=O)O)[C@H]1CCC2C3C(=O)CC4CC(=O)CC[C@]4(C)C3CC(=O)[C@@]21C` (stereo partly drawn), for which the suppression of toxicity is 0.

`Cc1ccc(C(=O)c2ccc(CC(=O)O)n2C)cc1` showed a suppression of toxicity of 8.57.

`COC(=O)C1=C(C)NC(C)=C(C(=O)OCCN(C)Cc2ccccc2)C1c1cccc([N+](=O)[O-])c1` (stereo not drawn) yielded a suppression of toxicity of 2.86.

In the case of `CCN(CC)CCOC(=O)C(Cc1cccc2ccccc12)CC1CCCO1` (stereo not drawn), the suppression of toxicity was determined as 2.86.

A short description of a further assay: PubChem AID 1597. The settings on record: Drosophila SCA1 polyglutamine model, at 1 µM, stronger effect = higher value.
In the case of `OC(c1cc(C(F)(F)F)nc2c(C(F)(F)F)cccc12)C1CCCCN1` (stereo not drawn), the suppression of toxicity was determined as 2.15.

For `C#C[C@]1(OC(C)=O)CCC2C3CCC4=CC(=O)CC[C@@H]4C3CC[C@@]21C` (stereo partly drawn), the suppression of toxicity was 5.

As to `NC(=O)c1ccc[n+]([C@@H]2O[C@H](COP(=O)([O-])OP(=O)(O)OC[C@H]3O[C@@H](n4cnc5c(N)ncnc54)[C@H](O)[C@@H]3O)[C@@H](O)[C@H]2O)c1`, the suppression of toxicity came out at 9.29.

Turning to `CC(C(=O)O)c1cccc(Oc2ccccc2)c1` (stereo not drawn), the suppression of toxicity was 2.15.

`O=c1n(CCCN2CCN(c3cccc(Cl)c3)CC2)nc2ccccn12` showed a suppression of toxicity of 4.29.

In the case of `Cc1nc2sccn2c(=O)c1CCN1CCC(=C(c2ccc(F)cc2)c2ccc(F)cc2)CC1`, the suppression of toxicity worked out at 5.71.

On to `O=NN(CCCl)C(=O)NCCCl`, for which the suppression of toxicity stood at 6.43.

On to `CC(C)CC1C(=O)N2CCC[C@H]2C2(O)O[C@](NC(=O)C3C=C4c5cccc6[nH]c(Br)c(c56)C[C@H]4N(C)C3)(C(C)C)C(=O)N12` (stereo partly drawn), for which the suppression of toxicity stood at 3.58.

Compound `CC(C)(Sc1cc(C(C)(C)C)c(O)c(C(C)(C)C)c1)Sc1cc(C(C)(C)C)c(O)c(C(C)(C)C)c1` had a suppression of toxicity of 2.86.

As to `C[N+](C)(C)CCO`, the suppression of toxicity was found to be 7.14.

Turning to `NC[C@H]1O[C@H](O[C@H]2C(O[C@@H]3O[C@H](CO)[C@@H](O)[C@H]3O)[C@@H](O)[C@H](N)C[C@@H]2N)[C@H](N)[C@@H](O)[C@@H]1O` (stereo partly drawn), the suppression of toxicity came to 2.86.

The compound `NS(=O)(=O)c1cc2c(cc1Cl)NC=NS2(=O)=O` yielded a suppression of toxicity of 1.43.

The compound `NCCCCN` gave a suppression of toxicity of 0.

The compound `Cc1cc(NC(=O)C2=C(O)c3ccccc3S(=O)(=O)N2C)no1` registered a suppression of toxicity of 0.715.

Regarding `CCCOc1ccccc1-c1nc2n[nH]nc2c(=O)[nH]1`, the suppression of toxicity amounted to 2.15.

The compound `CCCSc1ccc2nc(NC(=O)OC)[nH]c2c1` had a suppression of toxicity of 5.71.

`CC(=O)OCC1=C(C(=O)O)N2C(=O)[C@@H](NC(=O)CSc3ccncc3)[C@H]2SC1`: the suppression of toxicity worked out at 5.71.

For `Oc1ccc(Cl)cc1Cc1cc(Cl)ccc1O`, the suppression of toxicity came out at 4.29.

As for `CCN(CCCc1ccccc1)CCCc1ccccc1` (tested in a mixture with another compound), the suppression of toxicity came out at 2.15.

In turn, `CC(=O)N[C@@H]1[C@@H](O)[C@H](O)[C@@H](CO)O[C@H]1O` displayed a suppression of toxicity of 4.29.

For the compound `CC(=O)OC/C=C(C)/C=C/C=C(C)/C=C/C1=C(C)CCCC1(C)C`, the suppression of toxicity worked out at 11.4.

`CCCc1cc(=O)[nH]c(=S)[nH]1` displayed a suppression of toxicity of 0.715.

Compound `NCCSSCCN` registered a suppression of toxicity of 1.43.

Compound `CN[C@@H]1[C@H](O)[C@H](NC)[C@H]2O[C@@]3(O)C(=O)C[C@@H](C)O[C@H]3OC2[C@H]1O` (stereo partly drawn) gave a suppression of toxicity of 0.725.

Consider `CC(C)[N+]1(C)C2CC[C@@H]1CC(OC(=O)C(CO)c1ccccc1)C2` (stereo partly drawn), for which the suppression of toxicity amounted to 7.86.

`NCCNC(=O)c1ccc(Cl)cc1` displayed a suppression of toxicity of 0.715.

`NCC1CCC(N)C(OC2C(N)CC(N)C(OC3OC(CO)C(O)C(N)C3O)C2O)O1` (stereo not drawn): the suppression of toxicity turned out to be 1.43.

For `Oc1c(Cl)cc(Cl)cc1Sc1cc(Cl)cc(Cl)c1O`, the suppression of toxicity was 2.86.

`c1ccc(CN(CC2=NCCN2)c2ccccc2)cc1` gave a suppression of toxicity of 1.43.

Regarding `NC(=NCc1ccccc1)NC(=O)c1nc(Cl)c(N)nc1N`, the suppression of toxicity was determined as 0.

`Nc1nc(N)c2nc(-c3ccccc3)c(N)nc2n1` displayed a suppression of toxicity of 10.

As for `CC(C)[N+](C)(CCOC(=O)C1c2ccccc2Oc2ccccc21)C(C)C`, the suppression of toxicity stood at 9.29.

As for `Nc1ccc(S(=O)(=O)Nc2ncccn2)cc1`, the suppression of toxicity is 5.71.

For `NC(Cc1ccc(F)cc1)C(=O)O` (stereo not drawn), the suppression of toxicity amounted to 2.86.

In turn, `Cc1ccccc1OCC(O)CO` (stereo not drawn) gave a suppression of toxicity of 3.57.

Compound `C[C@H](CCC(=O)O)[C@H]1CCC2C3C(=O)CC4CC(=O)CC[C@]4(C)C3CC(=O)[C@@]21C` (stereo partly drawn) gave a suppression of toxicity of 5.71.

Compound `Cc1ccc(C(=O)c2ccc(CC(=O)O)n2C)cc1` came in with a suppression of toxicity of 15.7.

`COC(=O)C1=C(C)NC(C)=C(C(=O)OCCN(C)Cc2ccccc2)C1c1cccc([N+](=O)[O-])c1` (stereo not drawn) came in with a suppression of toxicity of 2.15.

In turn, `CCN(CC)CCOC(=O)C(Cc1cccc2ccccc12)CC1CCCO1` (stereo not drawn) showed a suppression of toxicity of 7.86.
